Test results: PMC3998888
These are yes or no findings as the source states them, for the method shown. Binding seen in cells or lysates may run through a third protein. Some entries that bind do so weakly or less than the wild type.

The chains behind the UniProt entries cited, without tags or fusion partners.
UniProt G5EES3: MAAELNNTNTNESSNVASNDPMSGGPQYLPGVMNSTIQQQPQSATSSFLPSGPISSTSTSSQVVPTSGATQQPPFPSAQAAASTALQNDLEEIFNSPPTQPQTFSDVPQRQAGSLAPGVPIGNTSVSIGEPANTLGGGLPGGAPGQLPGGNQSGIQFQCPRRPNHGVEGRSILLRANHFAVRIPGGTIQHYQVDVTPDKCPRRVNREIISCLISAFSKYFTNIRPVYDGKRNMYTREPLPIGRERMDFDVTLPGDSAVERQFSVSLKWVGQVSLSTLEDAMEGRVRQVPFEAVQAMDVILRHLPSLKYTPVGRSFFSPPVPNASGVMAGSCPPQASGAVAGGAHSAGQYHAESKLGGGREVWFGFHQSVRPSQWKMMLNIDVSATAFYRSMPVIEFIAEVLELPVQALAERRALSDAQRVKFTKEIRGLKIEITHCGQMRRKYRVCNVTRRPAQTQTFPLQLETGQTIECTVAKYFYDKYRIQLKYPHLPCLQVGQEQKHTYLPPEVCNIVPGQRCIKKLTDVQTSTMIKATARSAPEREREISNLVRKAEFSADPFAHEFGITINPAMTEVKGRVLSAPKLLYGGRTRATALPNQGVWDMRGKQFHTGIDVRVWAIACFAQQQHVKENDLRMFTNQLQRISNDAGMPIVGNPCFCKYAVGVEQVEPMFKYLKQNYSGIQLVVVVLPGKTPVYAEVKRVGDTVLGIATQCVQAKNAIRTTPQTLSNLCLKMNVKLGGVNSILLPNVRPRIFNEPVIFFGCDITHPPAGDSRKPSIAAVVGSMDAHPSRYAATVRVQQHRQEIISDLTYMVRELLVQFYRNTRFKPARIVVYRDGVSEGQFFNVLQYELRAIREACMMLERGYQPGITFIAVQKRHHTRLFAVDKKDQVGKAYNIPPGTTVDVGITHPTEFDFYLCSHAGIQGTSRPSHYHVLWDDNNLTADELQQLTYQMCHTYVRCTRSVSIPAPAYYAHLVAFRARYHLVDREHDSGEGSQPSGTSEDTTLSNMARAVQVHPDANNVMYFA
UniProt P34529: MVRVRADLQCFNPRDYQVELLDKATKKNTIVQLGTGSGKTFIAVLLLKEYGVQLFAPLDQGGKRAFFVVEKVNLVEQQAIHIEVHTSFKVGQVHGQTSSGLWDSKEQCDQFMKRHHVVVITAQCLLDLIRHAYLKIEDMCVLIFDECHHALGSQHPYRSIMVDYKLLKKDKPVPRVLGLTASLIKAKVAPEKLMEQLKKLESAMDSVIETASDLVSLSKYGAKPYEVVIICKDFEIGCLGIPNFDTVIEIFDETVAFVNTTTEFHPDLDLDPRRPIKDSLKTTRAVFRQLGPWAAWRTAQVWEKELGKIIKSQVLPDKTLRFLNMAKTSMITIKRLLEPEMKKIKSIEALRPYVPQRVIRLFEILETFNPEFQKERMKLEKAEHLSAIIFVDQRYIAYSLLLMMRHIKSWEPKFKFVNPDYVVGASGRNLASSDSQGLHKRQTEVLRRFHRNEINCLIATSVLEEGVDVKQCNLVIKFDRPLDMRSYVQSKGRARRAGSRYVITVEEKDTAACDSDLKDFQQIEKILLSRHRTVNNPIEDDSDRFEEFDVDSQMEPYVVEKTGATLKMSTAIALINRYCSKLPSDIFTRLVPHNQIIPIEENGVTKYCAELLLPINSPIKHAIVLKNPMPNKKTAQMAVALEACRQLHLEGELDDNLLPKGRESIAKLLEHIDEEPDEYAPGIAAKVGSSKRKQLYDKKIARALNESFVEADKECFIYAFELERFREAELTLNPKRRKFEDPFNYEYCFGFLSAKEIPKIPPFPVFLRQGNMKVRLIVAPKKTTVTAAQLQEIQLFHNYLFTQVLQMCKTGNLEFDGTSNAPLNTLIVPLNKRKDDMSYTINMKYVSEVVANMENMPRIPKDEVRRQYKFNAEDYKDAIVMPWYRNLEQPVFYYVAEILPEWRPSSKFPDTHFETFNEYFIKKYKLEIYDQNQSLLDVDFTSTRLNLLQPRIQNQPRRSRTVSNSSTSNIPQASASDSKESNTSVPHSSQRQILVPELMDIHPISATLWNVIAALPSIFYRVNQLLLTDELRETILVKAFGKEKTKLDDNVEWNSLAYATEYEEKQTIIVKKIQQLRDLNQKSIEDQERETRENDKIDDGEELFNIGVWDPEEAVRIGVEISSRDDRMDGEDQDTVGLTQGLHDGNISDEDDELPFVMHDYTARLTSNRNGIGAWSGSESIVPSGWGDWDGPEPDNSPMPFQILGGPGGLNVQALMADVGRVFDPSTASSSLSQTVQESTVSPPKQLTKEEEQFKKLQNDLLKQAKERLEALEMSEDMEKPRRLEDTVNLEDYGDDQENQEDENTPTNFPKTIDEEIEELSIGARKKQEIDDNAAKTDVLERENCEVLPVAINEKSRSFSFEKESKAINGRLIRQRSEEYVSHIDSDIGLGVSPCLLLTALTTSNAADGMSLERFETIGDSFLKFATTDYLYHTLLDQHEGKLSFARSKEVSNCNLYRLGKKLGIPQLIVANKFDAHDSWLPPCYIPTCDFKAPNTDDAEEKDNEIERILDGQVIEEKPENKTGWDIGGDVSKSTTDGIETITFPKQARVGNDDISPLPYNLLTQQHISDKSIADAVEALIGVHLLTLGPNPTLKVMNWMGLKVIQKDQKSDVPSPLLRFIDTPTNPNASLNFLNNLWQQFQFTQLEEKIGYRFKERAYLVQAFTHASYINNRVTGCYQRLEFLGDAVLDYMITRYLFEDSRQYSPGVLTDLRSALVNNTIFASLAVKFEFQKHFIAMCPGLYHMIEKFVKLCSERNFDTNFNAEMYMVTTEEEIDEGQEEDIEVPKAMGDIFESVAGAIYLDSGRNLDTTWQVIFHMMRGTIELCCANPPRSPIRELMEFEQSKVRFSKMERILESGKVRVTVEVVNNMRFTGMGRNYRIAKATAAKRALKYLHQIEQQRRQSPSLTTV

Target: ALG-1 (wild type) (C. elegans (endogenous in whole animals)) (UniProt G5EES3)
Test: co-IP; ALG-1 immunoprecipitated with a custom ALG-1-specific polyclonal antibody (Anaspec) from whole protein lysate of wild type or alg-1(anti) animals; precipitate probed by Western blot with anti-ALG-1, anti-DCR-1 and anti-AIN-1; signals quantified as ratios to ALG-1 and normalised to wild type

binding: binds
Substance: DCR-1 (Dicer) (from UniProt P34529 1-1910) (enzyme)
